In the experiment the target is Flag-CtIP (human) (UniProt Q99708). Nature of the experiment: co-IP; 293T cells cotransfected with Flag- and His-tagged constructs; IP with anti-Flag ("indicated antibodies" for Figures 5A, 7C, 7D), western blot with anti-His and anti-Flag; some panels with or without 2 μM CPT for 1 h, or with MG132 (20 μM, 3 h) and NETN lysis.

Protein sequences, listed by entry. Tags and fused reporters are not part of them. Lines headed by an entry give the natural chain unless they say otherwise; changes in a name come on top.
UniProt Q99708: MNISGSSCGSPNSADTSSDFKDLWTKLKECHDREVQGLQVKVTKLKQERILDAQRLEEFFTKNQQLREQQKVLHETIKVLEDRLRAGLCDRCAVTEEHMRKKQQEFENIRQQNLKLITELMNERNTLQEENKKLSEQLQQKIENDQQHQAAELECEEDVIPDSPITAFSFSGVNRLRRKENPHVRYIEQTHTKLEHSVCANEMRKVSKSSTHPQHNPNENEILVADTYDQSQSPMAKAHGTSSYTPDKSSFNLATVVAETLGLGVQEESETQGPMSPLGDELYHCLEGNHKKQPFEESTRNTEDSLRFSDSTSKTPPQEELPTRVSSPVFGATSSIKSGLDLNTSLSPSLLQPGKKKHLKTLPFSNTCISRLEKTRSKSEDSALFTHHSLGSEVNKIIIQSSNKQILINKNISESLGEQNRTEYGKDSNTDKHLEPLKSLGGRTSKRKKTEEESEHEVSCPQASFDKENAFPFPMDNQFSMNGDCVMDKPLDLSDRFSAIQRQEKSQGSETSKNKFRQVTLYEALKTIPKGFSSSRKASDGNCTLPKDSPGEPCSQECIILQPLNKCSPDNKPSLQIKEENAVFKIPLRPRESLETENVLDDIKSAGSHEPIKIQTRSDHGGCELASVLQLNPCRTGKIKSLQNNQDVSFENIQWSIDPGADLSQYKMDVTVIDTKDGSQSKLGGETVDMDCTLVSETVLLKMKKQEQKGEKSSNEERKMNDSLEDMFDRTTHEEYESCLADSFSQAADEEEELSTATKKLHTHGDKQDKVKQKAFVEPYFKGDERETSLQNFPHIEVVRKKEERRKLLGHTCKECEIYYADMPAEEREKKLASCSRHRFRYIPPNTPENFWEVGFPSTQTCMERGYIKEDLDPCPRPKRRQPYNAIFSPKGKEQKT
UniProt Q13356: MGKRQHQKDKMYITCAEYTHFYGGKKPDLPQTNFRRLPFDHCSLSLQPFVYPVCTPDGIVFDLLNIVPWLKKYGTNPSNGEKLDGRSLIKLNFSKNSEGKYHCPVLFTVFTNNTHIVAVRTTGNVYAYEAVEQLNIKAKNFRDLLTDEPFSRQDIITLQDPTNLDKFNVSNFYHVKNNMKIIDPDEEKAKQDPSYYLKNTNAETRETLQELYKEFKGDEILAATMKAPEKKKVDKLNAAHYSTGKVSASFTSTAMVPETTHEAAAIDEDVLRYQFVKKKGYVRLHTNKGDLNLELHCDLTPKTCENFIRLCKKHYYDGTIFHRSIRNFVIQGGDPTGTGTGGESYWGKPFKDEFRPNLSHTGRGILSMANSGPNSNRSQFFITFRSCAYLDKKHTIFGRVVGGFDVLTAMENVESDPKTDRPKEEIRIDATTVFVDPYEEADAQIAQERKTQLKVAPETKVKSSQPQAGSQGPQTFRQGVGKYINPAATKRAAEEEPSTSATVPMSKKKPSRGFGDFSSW

No constants are given. Whether binding was seen depends on the method and setting. In cells and extracts the contact can be indirect. Binding can be weak; no strength is given.

For His-PPIL2 C8A (from UniProt Q13356), the binding entry is recorded as “binds”. To His-PPIL2 C8D (from UniProt Q13356) belongs “binds”; to His-PPIL2 N6A (from UniProt Q13356), “binds”; to His-PPIL2 N6D (from UniProt Q13356), “binds”.

For the origin of these results see PMC9452783, “PLK1-mediated phosphorylation of PPIL2 regulates HR via CtIP” (Frontiers in Cell and Developmental Biology, 2022).
